Our source for the binding values is PMC11178496.

The chains behind the UniProt entries cited, without tags or fusion partners. Residues count along the entry.
UniProt Q14790: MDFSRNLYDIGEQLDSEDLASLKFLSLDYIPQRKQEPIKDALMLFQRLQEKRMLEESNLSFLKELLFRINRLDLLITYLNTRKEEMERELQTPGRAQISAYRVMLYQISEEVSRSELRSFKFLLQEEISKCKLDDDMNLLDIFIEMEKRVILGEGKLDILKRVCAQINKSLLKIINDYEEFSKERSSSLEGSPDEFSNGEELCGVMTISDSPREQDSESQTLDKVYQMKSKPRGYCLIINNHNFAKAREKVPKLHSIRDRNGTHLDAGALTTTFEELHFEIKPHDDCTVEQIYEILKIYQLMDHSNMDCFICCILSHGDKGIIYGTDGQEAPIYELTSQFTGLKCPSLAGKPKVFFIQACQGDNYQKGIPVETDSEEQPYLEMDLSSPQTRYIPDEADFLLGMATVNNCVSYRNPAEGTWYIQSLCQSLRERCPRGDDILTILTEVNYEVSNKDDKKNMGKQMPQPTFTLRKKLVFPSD
UniProt P25445, residues 26-335: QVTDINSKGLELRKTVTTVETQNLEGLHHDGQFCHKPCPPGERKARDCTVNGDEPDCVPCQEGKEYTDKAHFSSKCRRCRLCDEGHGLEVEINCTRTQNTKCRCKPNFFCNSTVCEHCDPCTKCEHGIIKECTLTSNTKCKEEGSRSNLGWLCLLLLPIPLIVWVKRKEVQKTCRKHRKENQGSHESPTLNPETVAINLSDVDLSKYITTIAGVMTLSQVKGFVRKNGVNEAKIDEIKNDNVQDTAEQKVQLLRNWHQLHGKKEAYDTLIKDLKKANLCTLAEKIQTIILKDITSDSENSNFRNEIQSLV

Assay [1] has as its target Procaspase-8 (human (endogenous in SKW 6.4)) (UniProt Q14790). Nature of the assay: affinity purification with mass spectrometry; anti-caspase-8 or anti-CD95 (anti-APO-1) antibodies covalently coupled to sepharose beads (Pierce Co-Immunoprecipitation kit); total lysates of SKW 6.4 cells treated for 15 min with 166 ng/mL CD95L or left untreated; nanoLC-tandem mass spectrometry.

For assay [2], the target named is CD95/Fas (human (endogenous in SKW 6.4)) (UniProt P25445). The description is as above.

Results are given in words; binding and its absence hold for the method and conditions named. In cells and extracts the contact can be indirect. Here binding means that the protein was enriched with, or labelled near, the bait; the list need not be complete.

B1: RIOK1 (protein, UniProt Q9BRS2 1-568)
chain: MDYRRLLMSRVVPGQFDDADSSDSENRDLKTVKEKDDILFEDLQDNVNENGEGEIEDEEEEGYDDDDDDWDWDEGVGKLAKGYVWNGGSNPQANRQTSDSSSAKMSTPADKVLRKFENKINLDKLNVTDSVINKVTEKSRQKEADMYRIKDKADRATVEQVLDPRTRMILFKMLTRGIITEINGCISTGKEANVYHASTANGESRAIKIYKTSILVFKDRDKYVSGEFRFRHGYCKGNPRKMVKTWAEKEMRNLIRLNTAEIPCPEPIMLRSHVLVMSFIGKDDMPAPLLKNVQLSESKARELYLQVIQYMRRMYQDARLVHADLSEFNMLYHGGGVYIIDVSQSVEHDHPHALEFLRKDCANVNDFFMRHSVAVMTVRELFEFVTDPSITHENMDAYLSKAMEIASQRTKEERSSQDHVDEEVFKRAYIPRTLNEVKNYERDMDIIMKLKEEDMAMNAQQDNILYQTVTGLKKDLSGVQKVPALLENQVEERTCSDSEDIGSSECSDTDSEEQGDHARPKKHTTDPDIDKKERKKMVKEAQREKRKNKIPKHVKKRKEKTAKTKKGK
Turning to B1, the binding result in assay [1] and in assay [2] was “binds” throughout.
